The list is a part of this screen's results and no random one: it is rich in T/C values a quarter to a half above the control, in often repeated tests (any T/C) and in doses without a T/C. Further doses and runs are listed elsewhere. T/C is the treated group as % of the vehicle group. Some entries give survivors of the animals treated and no T/C: the source holds a T/C of zero for them, seemingly a mark for toxic or unscored doses. Some survivor counts are full or nearly so, which does not show that the dose was tolerated: survival well below the control is almost never listed, so the zero probably covers shortened survival too. Survivors were counted at the toxicity check, usually on the fifth day, unless a day is given; later deaths do not show. Schedule codes are those of the source, taken here to give the interval after Q, in days (D) or hours (H), and the number of doses after X. For survival time, the PubChem record calls one and a half times the control and up active, and a quarter to a half above the control has no call in these data; cut-offs in other NCI protocols can differ. Signs of the kind (2×) stand for listed records that agree. Some T/C values carry the count of animals alive at the toxicity check (mostly the fifth day); where none is given, no animal had died by that day. Some doses were run more than once; the values are given in rising order.
System: CD2F1 mice, L1210 leukemia ip, survival T/C
Experiment: NCI In Vivo Anticancer Drug Screen. Data for tumor model L1210 Leukemia (intraperitoneal) in CD2F1 (CDF1) mice
Conditions: T/C endpoint: mean survival time, higher T/C = longer survival; for T/C: schedule: Q01DX001 (ip)
Method in brief: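 Compound-dosed mice with transplantable tumor versus matched vehicle controls; endpoint ratio T/C reported.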

SMILES: O=P1(N(CCCl)CCCl)NCCCO1 (stereo not given)
- T/C (dose: 125.0 mg/kg/injection, vehicle: water, evaluated on day 45): 159 and 166 % of control
- T/C (dose: 125.0 mg/kg/injection, vehicle: water, evaluated on day 60): 159 % of control
- T/C (dose: 150.0 mg/kg/injection, vehicle: saline, evaluated on day 5): 170 % of control
- T/C (dose: 150.0 mg/kg/injection, vehicle: saline, evaluated on day 6): 163 % of control
- T/C (dose: 150.0 mg/kg/injection, vehicle: saline, evaluated on day 30): 124, 146, 153, 162, 165, 166 % of control
- T/C (dose: 200.0 mg/kg/injection, vehicle: saline, evaluated on day 5): 185, 203, 210, 239, 247, 299, 300, 394, 460 % of control
- T/C (dose: 200.0 mg/kg/injection, vehicle: saline, evaluated on day 7): 199 % of control
- T/C (dose: 200.0 mg/kg/injection, vehicle: saline, evaluated on day 30): 150, 151, 161, 168, 251, 255, 259, 329 % of control
- T/C (dose: 200.0 mg/kg/injection, vehicle: saline, evaluated on day 35): 167 and 203 % of control
- T/C (dose: 200.0 mg/kg/injection, vehicle: saline, evaluated on day 40): 200 and 258 % of control
- T/C (dose: 200.0 mg/kg/injection, vehicle: saline, evaluated on day 45): 402 % of control
- T/C (dose: 200.0 mg/kg/injection, vehicle: saline, evaluated on day 60): 209, 300 (2×), 394, 397, 460 % of control
- T/C (dose: 200.0 mg/kg/injection, vehicle: saline, evaluated on day 90): 98, 152, 157, 162 [9 of 10 alive], 181, 185, 267 % of control
- T/C (dose: 200.0 mg/kg/injection, vehicle: water, evaluated on day 5): 127 % of control
- T/C (dose: 200.0 mg/kg/injection, vehicle: water, evaluated on day 7): 197 % of control
- T/C (dose: 200.0 mg/kg/injection, vehicle: water, evaluated on day 30): 147, 170, 178, 184, 193, 195, 202, 208, 218, 262, 291, 344 % of control
- T/C (dose: 200.0 mg/kg/injection, vehicle: water, evaluated on day 35): 247 % of control
- T/C (dose: 200.0 mg/kg/injection, vehicle: water, evaluated on day 45): 127 % of control
- T/C (dose: 200.0 mg/kg/injection, vehicle: water, evaluated on day 60): 197 % of control
- survivor count (dose: 200.0 mg/kg/injection, schedule: Q01DX009 (ip), vehicle: water): 6 of 6
- T/C (dose: 250.0 mg/kg/injection, vehicle: DMSO, evaluated on day 20): 227 % of control
- T/C (dose: 250.0 mg/kg/injection, vehicle: DMSO, evaluated on day 25): 252 % of control (2×)
- T/C (dose: 250.0 mg/kg/injection, vehicle: DMSO, evaluated on day 40): 438 % of control
- T/C (dose: 250.0 mg/kg/injection, vehicle: DMSO, evaluated on day 60): 397 % of control
- T/C (dose: 250.0 mg/kg/injection, vehicle: saline, evaluated on day 30): 166, 179, 200, 216, 219, 222, 278 [5 of 6 alive], 346, 354 % of control
- T/C (dose: 250.0 mg/kg/injection, vehicle: saline, evaluated on day 35): 225, 269, 274, 288 % of control
- T/C (dose: 250.0 mg/kg/injection, vehicle: saline, evaluated on day 40): 143 % of control
- T/C (dose: 250.0 mg/kg/injection, vehicle: saline, evaluated on day 45): 225, 236, 237 % of control
- T/C (dose: 250.0 mg/kg/injection, vehicle: saline, evaluated on day 60): 289 % of control
- T/C (dose: 250.0 mg/kg/injection, vehicle: water, evaluated on day 30): 129, 132 [5 of 6 alive], 136, 141, 146, 148, 158, 159, 173 (3×), 183, 200 [5 of 6 alive], 208, 210, 219, 227, 233, 236, 241, 246, 259, 273, 274, 280 (2×), 281, 282 (2×), 292, 297 (2×), 303, 308, 310 (2×), 320, 329, 337, 351, 353 % of control

— PubChem BioAssay AID256 (DTP/NCI, 2004)
